These results are taken from the supplement of paper PMC7125110.

± gives the standard error. Many of these values have a large error.

B1: glmS ribozyme (parent)
chain: AUAAAAGCGCCAGAACUACAGAAAUGUAGUUGACGAGGAGGAGGUUUAUCGAAUUUUCGGCGGAUGCCUCCAAA

The variants in the first data set derive from B1. Put plainly: self-cleavage kobs at 640 uM GlcN6P; higher = faster cleavage; RNA array. The conditions noted are these: with glucosamine-6-phosphate. An outline of the steps:
(§1)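 E. coli RNA polymerase transcribed barcoded ribozyme variants in situ on sequenced MiSeq chips, which were tracked via a hybridised Cy3 probe at 37 °C. Tiles were imaged over ~14 h after glucosamine-6-phosphate (40 μM to 10 mM) in HEPES/KCl/Mg(OAc)2 buffer was flowed in. Normalised per-tile medians were fit to one- or two-exponential decays for kobs, and kcat and KM came from weighted Michaelis–Menten fits.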
On to AUAAAAGCGCCAGAACUACAGAAAUGUAGUUGACGAAGAGGAGGUUUAUCGAUUUUUCGGCGGAUUCCUCCAAA [G37A A53U G66U], for which the “self-cleavage kobs at 640 uM GlcN6P” value stood at 3.33e-05 ± 1.7e-05 s⁻¹.
Same read-out and setting: the result for AUAAAAGCGCCAGUACUACAGAAAUGUAGUUGACGAGGAGGAGGUUUAUAGAAUUUUCGGCGGAUGCCUCAAAA [A14U C50A C71A] reads 4.76e-05 ± 3.5e-05 s⁻¹.
For AUAAAAGCGCCAGAACUACAGAAAUGUAGUUGAGGAGGAGGAGGUUUAUCGAAUUUUCGGCGGAUGCGUCCAAA [C34G C68G], the “self-cleavage kobs at 640 uM GlcN6P” value was determined as 3.97e-05 ± 2.3e-05 s⁻¹.
For AUAAAAGCGCCAGAACUACAGAAAUGUAUUUGACGAGGAGGAGGUUUAUCGAAGUUUCGGAGGAUGCCUCCAAA [G29U U54G C61A], the “self-cleavage kobs at 640 uM GlcN6P” value was 2.13e-05 ± 2.1e-05 s⁻¹.
Consider AUAAAAGCGCCAGAUCUACAGAAAUGUAGUUGACGAGGAGGAGGUUUAUCGAAUUUUUGGCGGAUGCCUCCAAA [A15U C58U], for which the “self-cleavage kobs at 640 uM GlcN6P” value was 2.23e-05 ± 1.4e-05 s⁻¹.
For the variant AUAAAAGCGCCAGAGUUACAGAAAUGUAGUUGACGAGGAGGAGGUUUUUCGAAUUUUCGGCGGAUGCCUCCAAA [A15G C16U A48U], the “self-cleavage kobs at 640 uM GlcN6P” value amounted to 2.98e-05 ± 2.3e-05 s⁻¹.
As for AUAAAAGCGCCAGAACUACAGAAAUGUAGUUGUCGAGGAGGAGGUUUAUCGAAUUUUCGGCGGAUGCCUCAAAA [A33U C71A], the “self-cleavage kobs at 640 uM GlcN6P” value is 1.89e-05 ± 1.2e-05 s⁻¹.
As to AUAAAAGCGCCAGAACUACAGAAAUGUACUUGACGAGGAGGAGGUUUAGCGAAUUUUCGGCGGAUGCCUGCAAA [G29C U49G C70G], the “self-cleavage kobs at 640 uM GlcN6P” value was determined as 2.58e-05 ± 2.3e-05 s⁻¹.
Still for that read-out and setting: next, AUAAAAGCGCCAGAACUACAGAAAUGUAGUAGACGAGGAGGAGGUUUAUCGAAUUUUCGGCGGAUGCGUCCAAA [U31A C68G]: 2.18e-05 ± 1.4e-05 s⁻¹; AUAAAAGCGCCAGAACUACAGAAAUGUAGUGGACGAGGAGGAGGUUUAUCGUAUUUUCGGCGGAUGCCUCCAAA [U31G A52U]: 2.06e-05 ± 1.4e-05 s⁻¹; AUAAAAGCGCCAGAACUACAGAAAUGUAGUAGACGAGGUGGAGGUUUAUCGAAUUUUCGGCGGAUGCCUGCAAA [U31A A39U C70G]: 3.05e-05 ± 2.1e-05 s⁻¹.
AUAAAAGCGCCAGAACUACAGAAAUGUAGUUAACGAGGAGGAGGUUUAUCGAUUUAUCGGCGGAUGCCUCUAAA [G32A A53U U56A C71U]: the “self-cleavage kobs at 640 uM GlcN6P” value was determined as 1.27e-05 ± 8.5e-06 s⁻¹.
In the case of AUAAAAGCGCCAGACCUACAGAAAUGUAGUUGACGGGGAGGAGGUUUAUGGAAUUUUCGGCGGAUGCCUCCAAA [A15C A36G C50G], the “self-cleavage kobs at 640 uM GlcN6P” value came to 3.02e-05 ± 2.9e-05 s⁻¹.
AUAAAAGCGCCAGAACUACAGAAAUGUAGUUGACGUGGAGGAGGUUUAUCGAUUUUUCGGCGGAUGUAUCCAAA [A36U A53U C67U C68A]: the “self-cleavage kobs at 640 uM GlcN6P” value worked out at 0.000101 ± 5.2e-05 s⁻¹.
With AUAAAAGCGCCAGAACUACAGAAAUGUAAUUGACGAGGAGGAGGUUUAUCGAAUUUUUGACGGAUGCCUACAAA [G29A C58U G60A C70A], the “self-cleavage kobs at 640 uM GlcN6P” value amounted to 2.56e-05 ± 2e-05 s⁻¹.
With AUAAAAGCGCCAGAACUACAGAAAUGUAUUUGACGAGGAGGAGGUUUAUCGAAUUUUCGGAGGAUGUCUCCAAA [G29U C61A C67U], the “self-cleavage kobs at 640 uM GlcN6P” value was 2.87e-05 ± 2.2e-05 s⁻¹.
On to AUAAAAGCGCCAGAAUUACAGAAAUGUAGUUGAGGAGGAGGAGGUUUAUGGAAUUUUCGGCGGAUGCCUCCAAA [C16U C34G C50G], for which the “self-cleavage kobs at 640 uM GlcN6P” value was 4.75e-05 ± 2.4e-05 s⁻¹.
Same read-out and setting: the result for AUAAAAGCGCCAGGACUACAGAAAUGUAGUUCACGAGGAGGAGGUUUAUGGAAUUUUCGGCGGAUGCCUCCAAA [A14G G32C C50G] reads 4.43e-05 ± 3.2e-05 s⁻¹; that for AUAAAAGCGCCAGAACUACAGAAAUGUAGAUGACGAGGAGGAGGUUUAUAGAAUUUUCGGCGGAUGCUUCCAAA [U30A C50A C68U], 3.12e-05 ± 2.1e-05 s⁻¹.
For AUAAAAGCGCCAGAGCUACAGAAAUGUAUUUGACGAGGGGGAGGUUUAUCGAAUUUUCGGCGGAUGUCUCCAAA [A15G G29U A39G C67U], the “self-cleavage kobs at 640 uM GlcN6P” value is 8.54e-05 ± 4.4e-05 s⁻¹.
The same measure, in the same setting: next, AUAAAAGCGCCAGAACUACAGAAAUGUAGUUGACGUGGAGGAGGUUUAUCGAAUUUUCGGCGGAUGCAUCCAAA [A36U C68A]: 0.000548 ± 0.00028 s⁻¹; AUAAAAGCGCCAGAACUACAGAAAUGUAGUUAACGAGGUGGAGGUUUAUCGAAUUAUCGGCGGAUGCCUCCAAA [G32A A39U U56A]: 2.33e-05 ± 1.2e-05 s⁻¹; AUAAAAGCGCCAGAACUACAGAAAUGUAGUUUACGAGGAGGAGGUUUAUCGACUAUUCGGCGGAUGCCUCCAAA [G32U A53C U55A]: 1.96e-05 ± 1.3e-05 s⁻¹.
For AUAAAAGCGCCAGAACUACAGACAUGUAGUUGACGAGGAGGAGGUUUAUCGAAUUUUCGGCGGAUGCCUACAAA [A23C C70A], the “self-cleavage kobs at 640 uM GlcN6P” value was found to be 0.000158 ± 7.9e-05 s⁻¹.
On to AUAAAAGCGCCAGAAUUACAGAAAUGUAGUUGACGAUGAGGAGGUUUAUAGAAUUUUCGUCGGAUGCUUCCAAA [C16U G37U C50A G60U C68U], for which the “self-cleavage kobs at 640 uM GlcN6P” value is 2.93e-05 ± 2.1e-05 s⁻¹.
On the same count and under the same terms, the result for AUAAAAGCGCCAGAAAUACAGAAAUGUAGUUGACGAGGAGGAGGUUUAUCGAAUUUUCGGCGGAUGCCACCAAA [C16A U69A] reads 3.29e-05 ± 1.8e-05 s⁻¹.
Still for that read-out and setting: the result for AUAAAAGCGCCAGAACUACAGAAAUGUAGGUGACGAGGAGGAGGUUUAUCGAAUCUUCGGCGGAAGCCUCUAAA [U30G U55C U65A C71U] reads 2.33e-05 ± 1.3e-05 s⁻¹; that for AUAAAAGCGCCAGACCUACAGAAAUGUAGUAUACGAGGAGGAGGUUUAUCGAAUUUUCGGCGGAUGCCGCCAAA [A15C U31A G32U U69G], 7.55e-05 ± 6.2e-05 s⁻¹.
The same measure, in the same setting: next, AUAAAAGCGCCAGAACUACAGAAAUGUAGUGGACGAGGAGGAGGUUUCUCGAAUUUGCGGCGGAUGCCUGCAAA [U31G A48C U57G C70G]: 2.61e-05 ± 1.8e-05 s⁻¹.

The variants in a further data set derive from B1. Put plainly: self-cleavage kobs at 160 uM GlcN6P; higher = faster cleavage; RNA array. The conditions noted are these: with glucosamine-6-phosphate. The method, boiled down:
as §1
Take AUAAAAGCGCCAGAACUACAGAAAUGUAGUUGAGGAGGAGGAGGUUUAUCGAAUUUUCGGCGGAUGCGUCCAAA [C34G C68G]: the “self-cleavage kobs at 160 uM GlcN6P” value was found to be 2.28e-05 ± 2.1e-05 s⁻¹.
On to AUAAAAGCGCCAGAACUACAGAAAUGUAUUUGACGAGGAGGAGGUUUAUCGAAUUUUCGGAGGAUGUCUCCAAA [G29U C61A C67U], for which the “self-cleavage kobs at 160 uM GlcN6P” value is 3.18e-05 ± 2.3e-05 s⁻¹.
With AUAAAAGCGCCAGGACUACAGAAAUGUAGUUCACGAGGAGGAGGUUUAUGGAAUUUUCGGCGGAUGCCUCCAAA [A14G G32C C50G], the “self-cleavage kobs at 160 uM GlcN6P” value is 3.35e-05 ± 2.3e-05 s⁻¹.

The variants in the next data set derive from B1. Put plainly: self-cleavage kobs at 2500 uM GlcN6P; higher = faster cleavage; RNA array. The conditions noted are these: with glucosamine-6-phosphate. The method, boiled down: as §1
In the case of AUAAAAGCGCCAGAACUACAGAAAUGUACUUGACGAGGAGGAGGUUUAGCGAAUUUUCGGCGGAUGCCUGCAAA [G29C U49G C70G], the “self-cleavage kobs at 2500 uM GlcN6P” value is 2.55e-05 ± 2.5e-05 s⁻¹.
AUAAAAGCGCCAGACCUACAGAAAUGUAGUUGACGGGGAGGAGGUUUAUGGAAUUUUCGGCGGAUGCCUCCAAA [A15C A36G C50G]: the “self-cleavage kobs at 2500 uM GlcN6P” value came to 3.93e-05 ± 2.6e-05 s⁻¹.
In the case of AUAAAAGCGCCAGAACUACAGAAAUGUAUUUGACGAGGAGGAGGUUUAUCGAAUUUUCGGAGGAUGUCUCCAAA [G29U C61A C67U], the “self-cleavage kobs at 2500 uM GlcN6P” value worked out at 4.22e-05 ± 2.7e-05 s⁻¹.
As to AUAAAAGCGCCAGGACUACAGAAAUGUAGUUCACGAGGAGGAGGUUUAUGGAAUUUUCGGCGGAUGCCUCCAAA [A14G G32C C50G], the “self-cleavage kobs at 2500 uM GlcN6P” value was 3.11e-05 ± 2.5e-05 s⁻¹.
Consider AUAAAAGCGCCAGAAUUACAGAAAUGUAGUUGACGAUGAGGAGGUUUAUAGAAUUUUCGUCGGAUGCUUCCAAA [C16U G37U C50A G60U C68U], for which the “self-cleavage kobs at 2500 uM GlcN6P” value was 3.35e-05 ± 2.6e-05 s⁻¹.
